# Assay results as given in patent US11179435B2, “Hangover alleviating composition containing conjugate of sesamol and peptide as active ingredient” (CAREGEN CO., LTD., priority 2017, dated 2021).
# Not every detail of the peptide structures is certain; ends, links or a residue may be inferred. Residues, ends and D or L forms follow the SMILES beside them.
# Tests used:
# Type in all cases: cell-based, human
# ALDH2 = assay: RT-PCR mRNA expression in HepG2 cells; settings: 10 μM or 50 μM, 6 hours, compared with untreated control group
# Method: (§1) In order to confirm an effect of increasing the expression of ADH and ALDH involved in the alcohol degradation process, liver carcinoma cells were treated with the two types of conjugates of the sesamol and the peptides prepared in [Preparation Example 2], respectively, and then RT-PCR was performed.
# (§2) Specifically, HepG2 cells were inoculated in a 6-well plate at a density of 4×10^5 cells/well, and then incubated overnight. Thereafter, the two types of conjugates of the sesamol and the peptides prepared in [Preparation Example 2] were treated at a concentration of 10 μM or 50 μM, respectively, and incubated for 6 hours, and the cells were collected. Thereafter, the total RNA was isolated from the collected cells according to a manufacturer's protocol using Trizol (Invitrogen, USA), and then 1 μg of the isolated RNA was synthesized to cDNA according to a manufacturer's protocol using a cDNA synthesis kit (Intron, Korea). The cDNA was subjected to PCR using primers shown in Table 2 below, and then electrophoresed on a 5% agarose gel to confirm mRNA expression levels of ADH4, ALDH1, and ALDH2.
# ALDH1 = assay: RT-PCR mRNA expression in HepG2 cells; settings: 10 μM or 50 μM, 6 hours, compared with untreated control group
# Method: as §1, §2
# ADH4 = assay: RT-PCR mRNA expression in HepG2 cells; settings: 10 μM or 50 μM, 6 hours, compared with untreated control group
# Method: as §1, §2
# [1] = system: aldehyde dehydrogenase (ALDH); assay: ALDH activity assay in HepG2 cells treated with conjugate; settings: 50 μM or 100 μM, 24 hours, compared to untreated control group
# Method: Alcohol was converted to acetaldehyde by alcohol dehydrogenase (ADH), an alcohol degrading enzyme, and the converted acetaldehyde was converted and degraded to acetate by aldehyde dehydrogenase (ALDH). Therefore, in order to confirm the effect of increasing the activity of ALDH involved in the alcohol degradation process, liver carcinoma cells were treated with the two types of conjugates of the sesamol and the peptides prepared in [Preparation Example 2], respectively, and then the ALDH activity assay was performed.
# Specifically, liver hepatocellular carcinoma (HepG2) cells, which were human liver carcinoma cells, were inoculated into a 6-well plate at a density of 4×10^5 cells/well and then incubated overnight. Thereafter, the two types of conjugates of the sesamol and the peptides prepared in [Preparation Example 2] were treated at a concentration of 50 μM or 100 μM, respectively, and incubated for 24 hours, and the cells were collected and then the ALDH activity was analyzed using an ALDH activity assay kit (abcam, ab155893). Meanwhile, a positive control group was treated with 5 μM sulfolaphane.
# For the ALDH activity assay, each of the collected cells was treated with an ALDH activity assay buffer included in the kit, and then lysed with a homogenizer under ice. […] Thereafter, the ALDH activity was calculated using the following [Equation 1]. […]
smiles,measurement,setting,value
CC(C)C[C@H](NC(=O)[C@H](Cc1c[nH]c2ccccc12)NC(=O)CCC(=O)Oc1ccc2c(c1)OCO2)C(=O)N[C@@H](CC(N)=O)C(=O)N[C@@H](CCCNC(=N)N)C(=O)N[C@@H](CCCNC(=N)N)C(=O)N[C@@H](C)C(=O)N[C@@H](CC(N)=O)C(=O)O [SEQ ID NO: 2] (HELM PEPTIDE1{[O=C(CCC(=O)[*:2])Oc1ccc2c(c1)OCO2].W.L.N.R.R.A.N}$$$$V2.0),mRNA expression of ALDH2,ALDH2,significantly increased
same,mRNA expression of ALDH1,ALDH1,significantly increased
same,mRNA expression of ADH4,ADH4,significantly increased
same,ALDH activity,[1],increased in a concentration-dependent manner
